Source: PubChem BioAssay AID1159583 (ICCB-Longwood Screening Facility, Harvard Medical School, 2016)
Some of the results follow. Some structures show a salt or complex split into parts, the way the source records it.

Test: hypoxia reporter signal reduction in M. tuberculosis – fluorescence, absorbance growth readout, primary screen (AID 1159583)
Conditions: M. tuberculosis hypoxia-regulated fluorescent reporter, measured here: M. tuberculosis growth (absorbance), stronger effect = higher value, concentration not given here
For `COC(=O)c1cc2c(s1)N=C(c1ccccc1)N(C)P2(=O)N1CCOCC1` (stereo unspecified), the growth inhibition was -6.76%.
`Cc1c([N+](=O)[O-])cc([N+](=O)[O-])c(Br)c1[N+](=O)[O-]` gave a growth inhibition of 5.2%.
`CCC(=O)N1C2C3N(C(=O)CC)C1C1N(C(=O)CC)C(C(N1C(=O)CC)N3C(=O)CC)N2C(=O)CC` gave a growth inhibition of 7.37%.
With `CC1OP(=O)(Oc2ccccc2)CC2OC12` (stereo unspecified) the growth inhibition was 5.36%.
Work on `CCN(CC)CCCOC(=O)C(O)(c1ccccc1)C1CCCCC1` (stereo unspecified) yielded a growth inhibition of 5.67%.
`O=C(OC1CN2CCC1CC2)c1ccccc1` (stereo unspecified) gave a growth inhibition of -6.33%.
For `CCOC(=O)c1ccc(NP(C)(=O)Oc2ccc(F)cc2)cc1` (stereo unspecified), the growth inhibition was 9.71%.
For `O=P1(N(CCCl)CCCl)OCCC2CCCCN21` (stereo unspecified), the growth inhibition was 4.28%.
For `COc1ccc(OP(C)(=O)Nc2ccc(SC(F)(F)F)cc2)cc1` (stereo unspecified), the growth inhibition was 5.04%.
For `O=C(NC1CCS(=O)(=O)C1)NP(=S)(Oc1ccccc1)Oc1ccccc1` (stereo unspecified), the growth inhibition was 0.645%.
Compound `Cc1ccc(NP(=O)(Oc2cccc(C)c2)Oc2cccc(C)c2)nc1` has a growth inhibition of -3.47%.
With `c1ccc(-c2nn[nH]n2)c(-c2nn[nH]n2)c1` the growth inhibition was 10.5%.
`Nc1ccc([As](=O)(O)c2ccc([N+](=O)[O-])cc2)cc1` showed a growth inhibition of 25.9%.
With `Cc1c(C(c2ccc3c(c2)OCO3)c2c(C)n(C)n(-c3ccccc3)c2=O)c(=O)n(-c2ccccc2)n1C.O=[N+]([O-])c1cc([N+](=O)[O-])c(O)c([N+](=O)[O-])c1` the growth inhibition was 6.17%.
Compound `O=[N+]([O-])c1ccc(O)c(C=NNc2ccc([N+](=O)[O-])cc2[N+](=O)[O-])c1` has a growth inhibition of 14.4%.
Work on `O=C(OC1CN2CCC1CC2)c1cccc(Cl)c1` (stereo unspecified) yielded a growth inhibition of 4.06%.
`O=[N+]([O-])c1ccc(OP2(=O)COCCO2)cc1` (stereo unspecified) gave a growth inhibition of 0.65%.
`CC(=O)NC(SC(=S)N(C)C)C(Cl)(Cl)Cl` (stereo unspecified) showed a growth inhibition of 42.1%.
`O=[N+]([O-])c1ncn(CCn2cnc([N+](=O)[O-])n2)n1` gave a growth inhibition of 9.87%.
With `CN(C(=O)Cc1ccc(Cl)c(Cl)c1)C1CC[C@@]2(CCCO2)CC1N1CCCC1` (stereo partly specified) the growth inhibition was 2.16%.
In the case of `Cc1cc(-c2cccc3ccccc23)c(C)cn1.O=[N+]([O-])c1cc([N+](=O)[O-])c(O)c([N+](=O)[O-])c1`, the growth inhibition is reported as -1.7%.
Compound `O=[N+]([O-])c1cc([N+](=O)[O-])c(NCC2CCS(=O)(=O)C2)c([N+](=O)[O-])c1` (stereo unspecified) has a growth inhibition of -0.329%.
`O=[As](O)(c1ccccc1)c1ccc(O)cc1` showed a growth inhibition of 32.5%.
Compound `O=P(Nc1nc2ccccc2s1)(c1ccccc1)c1ccccc1` has a growth inhibition of 2.11%.
In the case of `CCN(C(=NP(=O)(N1CCOCC1)N1CCOCC1)N1CCOCC1)c1ccc(OC)cc1`, the growth inhibition is reported as 3.22%.
With `COc1ccc(NP(C)(=O)Oc2ccccc2OC)cc1` (stereo unspecified) the growth inhibition was -1.54%.
Compound `COc1ccc(N)c([N+](=O)[O-])c1[N+](=O)[O-]` has a growth inhibition of -3.56%.
Compound `CC(C)C=NN=C(N)N[N+](=O)[O-]` has a growth inhibition of 7.38%.
With `COc1ccc(OP(C)(=O)Nc2cccc(Br)c2)cc1` (stereo unspecified) the growth inhibition was 11.1%.
In the case of `CN(C)C1(CNC(=O)c2ccc(Cl)c(S(N)(=O)=O)c2)CCCCC1`, the growth inhibition is reported as 4.14%.
Work on `O=P(Nc1ccccn1)(c1ccc(Br)cc1)c1ccc(Br)cc1` yielded a growth inhibition of 4.43%.
With `C=CCN1CCN(CCOC(=O)C(O)(c2ccccc2)c2ccccc2)CC1` the growth inhibition was 1.47%.
For `CCOP(C)(=S)SCC(=O)NC(C)(CC)C(=O)O` (stereo unspecified), the growth inhibition was -0.751%.
`CP(=O)(Nc1ccc(SC(F)(F)F)cc1)Oc1ccc(F)cc1` (stereo unspecified) showed a growth inhibition of 10.2%.
With `CCNC(=S)N=C(N)N[N+](=O)[O-]` the growth inhibition was -1.48%.
In the case of `O=P(Nc1nccs1)(c1ccccc1)c1ccccc1`, the growth inhibition is reported as -11.7%.
Compound `CC(C)C(=O)NC(Sc1ccccc1)C(Cl)(Cl)Cl` (stereo unspecified) has a growth inhibition of -3.05%.
With `CC1(CBr)Cn2c(nc3ccccc3c2=O)S1` (stereo unspecified) the growth inhibition was 1.14%.
`O=[As](O)(c1ccccc1Br)c1ccccc1Br` gave a growth inhibition of 1.15%.
In the case of `COc1ccccc1CNC(=O)COC(=O)C(O)(c1ccccc1)c1ccccc1`, the growth inhibition is reported as -4.43%.
`O=[N+]([O-])c1cc([N+](=O)[O-])c(-c2cnn(-c3ccccc3)c2)c([N+](=O)[O-])c1` gave a growth inhibition of 0.0124%.
Compound `CC(C)(C)C(=O)NC(Sc1ncccn1)C(Cl)(Cl)Cl` (stereo unspecified) has a growth inhibition of -5.02%.
`Clc1n[nH]nc1-c1nn[nH][15n]1` gave a growth inhibition of -1.39%.
`CCOP(=O)(Nc1ccc(C)cn1)OCC` gave a growth inhibition of 3.64%.
Work on `O=[N+]([O-])c1cc([N+](=O)[O-])c(-n2nnc3ccccc32)c([N+](=O)[O-])c1` yielded a growth inhibition of 11.4%.
In the case of `O=P1(Nc2ccccn2)COc2ccccc2OC1`, the growth inhibition is reported as -13.2%.
`O=[As](O)(c1cccs1)c1cccs1` showed a growth inhibition of 16.6%.
`NS(=O)(=O)c1cccc(NC(=O)COC(=O)C(O)(c2ccccc2)c2ccccc2)c1` gave a growth inhibition of -11.1%.
In the case of `O=P1(Nc2ccc(Br)cn2)COc2ccccc2OC1`, the growth inhibition is reported as 15.1%.
For `CCCOc1ccc(NP(C)(=O)Oc2ccc(Cl)cc2)cc1` (stereo unspecified), the growth inhibition was 12.3%.
Compound `CP(=O)(Nc1ccc(SC(F)(F)F)cc1)Oc1ccccc1` (stereo unspecified) has a growth inhibition of 6.06%.
With `Nc1cccc([As](=O)(O)c2ccccc2)c1` the growth inhibition was 7.81%.
With `CN1CCCCC1COC(=O)C1(O)c2ccccc2CCc2ccccc21` (stereo unspecified) the growth inhibition was -3.93%.
For `COc1ccccc1OP(C)(=O)Nc1c(C)cccc1C` (stereo unspecified), the growth inhibition was 3.03%.
Work on `O=P1(Nc2ncccn2)COc2ccccc2OC1` yielded a growth inhibition of 2.19%.
In the case of `CCCC1OP(=O)(Nc2ccccc2)OCC1CC` (stereo unspecified), the growth inhibition is reported as 24.1%.
For `O=C(/C=C/c1ccccc1)OC1CN2CCC1CC2` (stereo unspecified), the growth inhibition was -2.47%.
For `CCOC(=O)C(CC)C1=NC(C)(C)Cc2ccccc21.O=[N+]([O-])c1cc([N+](=O)[O-])c(O)c([N+](=O)[O-])c1` (stereo unspecified), the growth inhibition was 0.617%.
Compound `CN(C)C1(CNC(=O)c2ccc(S(C)(=O)=O)cc2)CCCCC1` has a growth inhibition of -9.1%.
In the case of `O=[N+]([O-])c1cc([N+](=O)[O-])c(Nc2nnnn2CCO)c([N+](=O)[O-])c1`, the growth inhibition is reported as 10.1%.
For `COc1cc(C2NCCC3(OCCO3)C2(C)C)cc(OC)c1OC.O=[N+]([O-])c1cc([N+](=O)[O-])c(O)c([N+](=O)[O-])c1` (stereo unspecified), the growth inhibition was 11.1%.
In the case of `Cc1ccc(C(=O)OC2CN3CCC2CC3)cc1` (stereo unspecified), the growth inhibition is reported as -2.84%.
In the case of `CC1CCC(C(C)C)C(OP(=O)(Nc2ccccn2)c2ccccc2)C1` (stereo unspecified), the growth inhibition is reported as 1.47%.
In the case of `Cc1nn(-c2ccccc2)c2c1P(=O)(N1CCOCC1)N(C)C(c1ccccc1)=N2` (stereo unspecified), the growth inhibition is reported as 3.65%.
Work on `CC1=NCCc2c1[nH]c1ccccc21.O=[N+]([O-])c1cc([N+](=O)[O-])c(O)c([N+](=O)[O-])c1` yielded a growth inhibition of 0.932%.
`O=[N+]([O-])c1ccc2c(c1)nnn2O` showed a growth inhibition of -7.56%.
In the case of `CN(C)C(=O)c1cc([N+](=O)[O-])cc2c1-c1c(cc([N+](=O)[O-])cc1[N+](=O)[O-])C2=O`, the growth inhibition is reported as 20.2%.
`CCOP1(=S)c2c(C)nn(CCC#N)c2N=C(c2ccc(F)cc2)N1C` (stereo unspecified) showed a growth inhibition of 5.15%.
Work on `N#CCCN(C(=O)COC(=O)C(O)(c1ccccc1)c1ccccc1)c1ccc(F)cc1` yielded a growth inhibition of -11.8%.
With `Cc1ccc(NC(=NP(=O)(N2CCOCC2)N2CCOCC2)N2CCOCC2)cc1` the growth inhibition was -2.4%.
With `NC(=O)Nc1ccc([As](=O)(O)O)cc1` the growth inhibition was 9.09%.
In the case of `O=C(O)COc1ccc([As](=O)(O)O)cc1[N+](=O)[O-]`, the growth inhibition is reported as -9.19%.
`Nc1ccccc1[As](=O)(O)c1ccccc1` gave a growth inhibition of 9.87%.
In the case of `O=P(Nc1nccs1)(Oc1ccccc1)Oc1ccccc1`, the growth inhibition is reported as -5.14%.
With `O=P(Nc1nccs1)(c1ccccc1)c1nc2ccccc2s1` (stereo unspecified) the growth inhibition was 10.2%.
`O=C(O)c1cccc(Nc2c([N+](=O)[O-])cc([N+](=O)[O-])cc2[N+](=O)[O-])c1` showed a growth inhibition of -1.69%.
In the case of `CCOP1(=S)c2c(C)nn(CCC#N)c2N=C(c2ccccc2F)N1C` (stereo unspecified), the growth inhibition is reported as -9.11%.
Compound `CCOP(=O)(Nc1cccc2ccccc12)OCC` has a growth inhibition of 4.55%.
For `CCCOP(=S)(Nc1nc(N)cc(=O)[nH]1)OCCC`, the growth inhibition was 15.6%.
`Cc1ccc(NCCc2c([N+](=O)[O-])cc([N+](=O)[O-])cc2[N+](=O)[O-])cc1` gave a growth inhibition of 6.25%.
For `Cc1cc(C)cc(OP(C)(=O)Nc2ccccn2)c1` (stereo unspecified), the growth inhibition was 14.3%.
In the case of `CP(=O)(Nc1cccc(Br)c1)Oc1ccccc1` (stereo unspecified), the growth inhibition is reported as 11.2%.
In the case of `CC1C=CCP(=O)(Oc2ccccc2)O1` (stereo unspecified), the growth inhibition is reported as 2.22%.
Compound `CCOC(=O)c1ccc(NP(C)(=O)Oc2cc(C)cc(C)c2)cc1` (stereo unspecified) has a growth inhibition of 0.593%.
Compound `Cc1cc(C)cc(OP(C)(=O)Nc2ccc(C)cc2C)c1` (stereo unspecified) has a growth inhibition of 0.341%.
Compound `O=[As](O)(c1cccc(O)c1)c1cccc(O)c1` has a growth inhibition of 13.6%.
Compound `COc1ccccc1OP(C)(=O)Nc1cccc(Br)c1` (stereo unspecified) has a growth inhibition of 16.3%.
With `CS(=O)(=O)c1ccc(Cl)c(NC(=O)COC(=O)C(O)(c2ccccc2)c2ccccc2)c1` the growth inhibition was 2.44%.
Work on `O=[As](O)(O)c1cccnc1` yielded a growth inhibition of 1.08%.
`COc1cc(C(=O)NCC2(N3CCOCC3)CCCCC2)cc(Cl)c1OC(C)C` gave a growth inhibition of -0.987%.
Work on `O=C(OC1CN2CCC1CC2)c1ccc(Cl)cc1` (stereo unspecified) yielded a growth inhibition of -7.44%.
`CCC(CO)(C(=O)OC1CN2CCC1CC2)c1ccccc1` (stereo unspecified) gave a growth inhibition of -4.19%.
`COc1cc(I)ccc1[As](=O)(O)O` gave a growth inhibition of -2.64%.
For `COc1ccc2nc(NP(=O)(c3ccccc3)c3ccccc3)sc2c1`, the growth inhibition was 6.54%.
In the case of `O=P1(N(CCCl)CCCl)Nc2ccccc2N1`, the growth inhibition is reported as 8.89%.
In the case of `Cc1cc(=O)[nH]c(N[N+](=O)[O-])n1`, the growth inhibition is reported as 12.8%.
Compound `CCN(CC)CCCOC(=O)C(O)(c1ccccc1)c1ccccc1` has a growth inhibition of 5.91%.
`Cc1c2c(nc3ccccc13)SC(C(Cl)Cl)C2` (stereo unspecified) gave a growth inhibition of 8.72%.
`Cc1cc(C)cc(OP(C)(N)=O)c1` (stereo unspecified) gave a growth inhibition of 2.47%.
`COc1ccc(OP(C)(=O)Nc2cccc(F)c2)cc1` (stereo unspecified) showed a growth inhibition of -7.35%.
For `O=[N+]([O-])c1cc([N+](=O)[O-])c(-c2ccn[nH]2)s1`, the growth inhibition was 32.3%.
For `CC(C)NC(=O)NP(=O)(Oc1ccccc1)Oc1ccccc1`, the growth inhibition was 9.85%.
Compound `COc1ccccc1OP(C)(=O)Nc1cc(Cl)ccc1C` (stereo unspecified) has a growth inhibition of 6.05%.
`O=C(OC1CN2CCC1CC2)c1cccc2[nH]cnc12` (stereo unspecified) gave a growth inhibition of 10.4%.
With `Cc1ccc(NP(C)(=O)Oc2ccccc2)c(C)c1` (stereo unspecified) the growth inhibition was 12.2%.
For `CC(C)c1ccc(OP(=O)(Nc2ccccn2)Oc2ccccc2F)cc1` (stereo unspecified), the growth inhibition was -5.02%.
With `COc1ccccc1OP(C)(=O)Nc1ccc(C)cc1` (stereo unspecified) the growth inhibition was -8.56%.
Compound `ClCCSc1nnc(-c2cccnc2)o1` has a growth inhibition of 15.6%.
`COc1ccc2c(c1O)-c1c(O)c(OC)cc3c1C(C2)[N+](C)(C)CC3.O=[N+]([O-])c1cc([N+](=O)[O-])c([O-])c([N+](=O)[O-])c1[O-]` (stereo unspecified) showed a growth inhibition of 0.308%.
Compound `CCOC(=O)c1ccc(NP(C)(=O)Oc2ccccc2)cc1` (stereo unspecified) has a growth inhibition of -2.14%.
For `O=[N+]([O-])c1ccc2c(c1)C=Nc1ccccc1O2`, the growth inhibition was -5.14%.
